The values that follow come from patent US20240018249A1.

One assay has as its target rat IL-31RA (rat). Put plainly: Biacore T100 (SPR).
Another assay deals with rabbit IL-31RA (rabbit). Put plainly: Biacore T100 (SPR).

These are yes or no findings as the source states them, for the method shown.

B1: CIM331 (antibody, IgG2, V domains shown)
VH: QVQLVQSGAEVKKPGASVKVSCKASGYTFTGYIMNWVRQAPGQGLEWMGLINPYNGGTDYNPQFQDRVTITADKSTSTAYMELSSLRSEDTAVYYCARDGYDDGPYTLETWGQGTLVTVSS
VL: DIQMTQSPSSLSASVGDRVTITCQASEDIYSFVAWYQQKPGKAPKLLIYNAQTEAQGVPSRFSGSGSGTDFTLTISSLQPEDFATYYCQHHYDSPLTFGGGTKVEIKR
B1: the binding result in the assay with rat IL-31RA (rat) and with rabbit IL-31RA (rabbit) was “no binding” throughout.
